In PubChem BioAssay AID485314 (National Center for Advancing Translational Sciences (NCATS), 2010):
In all, about 340,000 compounds went through this assay and about 4,500 (1.3%) were called active. Inconclusive results, whose numbers are uncertain, are shown with a selection of clear calls. Calls come from the whole dose curve; as a rule, active = well fitted inhibition curve with a large enough effect; inconclusive = small, poorly fitted or top-dose-only effect, or another doubt; inactive = no such curve, though single readings can be large or run the other way. Potencies of inconclusive entries are doubtful fits and often do not repeat.

Biological target: DNA polymerase beta (Homo sapiens) (UniProt P06746)
Experiment: qHTS Assay for Inhibitors of DNA Polymerase Beta
Settings: Pol beta primer extension/strand displacement, fluorescence kinetic; activity change, negative = inhibition: at 114 µM (top of the series)
Procedure, shortened: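 Kinetic readout of DNA synthesis with strand displacement by Pol beta. Compound and 10 nM enzyme sit 15 min at room temperature; 50 nM substrate starts the reaction, read immediately and at 10 min.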
% is set by controls: 0 for no effect and ±100 for the full control effect; potency is the fitted concentration of half-maximal effect.

Row | Structure (SMILES) | Potency | activity change, negative = inhibition
1 | COc1ccc(-n2c(C)nnc2SCC(=O)N2CCOCC2)cc1 | inconclusive: 2.82 µM [inhibitor, full curve, poor fit] | –
2 | COc1cc(OC)cc(C(=O)N2CCC(c3ccncc3)CC2)c1 | – | inactive: 1.28%
3 | CCN1CCN(CC(=O)Nc2ccc(Cl)c(S(=O)(=O)N(C)C)c2)CC1 | inconclusive: 89.1 µM [inhibitor, single point] | –
4 | Cc1cc(CN(C)C(=O)C2CCC(=O)N(CCc3ccccc3)C2)n[nH]1 (centres undefined) | – | inconclusive: -43.4% [inhibitor]
5 | C/C=C\C=C/C(=O)Nc1cccc(C2=NOC3(C2)C[C@@H](C(N)=O)N(C(=O)CCCCC)C3)c1 (some centres undefined) | inconclusive: 89.1 µM [inhibitor, single point] | –
6 | COc1ccc(-c2cc3nc(-c4ccccc4)cc(N4CCC5(CC4)OCCO5)n3n2)cc1 | inconclusive: 5.01 µM [inhibitor, full curve] | –
7 | O=[N+]([O-])c1ccc(-c2nc(NCC3CCCO3)c3ccccc3n2)cc1 (centres undefined) | inconclusive: 89.1 µM [inhibitor, single point] | –
8 | COC(=O)C1(C)Nc2ccccc2C(=O)N1c1ccccc1OC (centres undefined) | inconclusive: 89.1 µM [inhibitor, single point] | –
9 | COc1cc(/C=N/NC(=O)C2CCN(CC(O)COCc3ccccc3)CC2)cc(OC)c1OC (centres undefined) | inconclusive: 20 µM [inhibitor, full curve, poor fit] | –
10 | O=C(COc1ccc(Cl)cc1)Nc1ccccc1C(=O)OCc1cc(=O)n2ccsc2n1 | inconclusive: 7.08 µM [inhibitor, partial curve] | –
11 | CC(NC1c2ccccc2-c2ccccc21)c1ccccc1 (centres undefined) | inconclusive: 56.2 µM [inhibitor, partial curve] | –
12 | Cc1cc2oc(=O)cc(CN3CCCCC3C)c2cc1C (centres undefined) | – | inactive: 0.245%
13 | Cc1cc(C)c2c(=O)c3c(oc2c1)C(=O)N(Cc1ccc(F)cc1)C3c1cccc(O)c1 (centres undefined) | – | inactive: -21.2%
14 | Cc1ccc2nc(N(CCCN(C)C)C(=O)c3sc4ccccc4c3Cl)sc2c1 | inconclusive: 89.1 µM [inhibitor, single point] | –
15 | Cc1nnc2ccc(-c3cccc(NC(=O)Cc4cccs4)c3)nn12 | active: 12.6 µM | –
16 | CCOc1ccccc1CNc1ncnc2c1nc1n2CCCC1 | – | inactive: 29.4%
17 | CC(Oc1cccc2cccnc12)C(=O)N/N=C/c1ccccc1 (centres undefined) | inconclusive: 89.1 µM [inhibitor, single point] | –
18 | O=C(CN1CCSc2ccccc21)N1CCN(c2ccccc2)CC1 | – | inactive: 2.05%
19 | FC(F)(F)c1cccc(OCc2noc(-c3ccsc3)n2)c1 | inconclusive: 89.1 µM [inhibitor, single point] | –
20 | CC(=O)N(C(C)=O)c1ccc2nc(C)[nH]c(=O)c2c1 | inconclusive: 7.94 µM [inhibitor, full curve, poor fit] | –
21 | Cc1n[nH]c(C)c1Sc1ccccc1N=Cc1cc(Cl)cc([N+](=O)[O-])c1O | inconclusive: 0.112 µM [inhibitor, full curve, poor fit] | –
22 | O=C(Cn1cnc2sc(-c3ccccc3)cc2c1=O)NCc1ccccc1 | inconclusive: 56.2 µM [inhibitor, partial curve, poor fit] | –

Row | Structure (SMILES) | Potency | activity change, negative = inhibition
23 | CS(=O)(=O)c1ccc2nc(NC(=O)Nc3cccc(Cl)c3)sc2c1 | active: 50.1 µM | –
24 | S=c1[nH]nc(COc2ccccc2)n1/N=C/c1cccs1 | inconclusive: 31.6 µM [inhibitor, full curve] | –
25 | COc1ccc(CNC(=O)Cn2ccc3cc(S(=O)(=O)N4CCCCC4)ccc32)c(OC)c1 | – | inactive: 11.7%
26 | CCc1c(C)nc(N2CCN(c3ccccc3)CC2)[nH]c1=O | inconclusive: 5.01 µM [inhibitor, single point] | –
27 | COc1ccc(CC(=O)NCC(=O)NC(Cc2ccccc2)C(=O)O)cc1 (centres undefined) | – | inactive: -18.3%
28 | O=C(Nc1nnc(CCc2ccccc2)s1)C1CCCO1 (centres undefined) | inconclusive: 20 µM [inhibitor, single point] | –
29 | CCc1nnc(NC(=O)CCC(=O)Nc2ccc(Cl)cc2)s1 | inconclusive: 0.126 µM [inhibitor, full curve, poor fit] | –
30 | Cc1cc(Br)c2c(c1)=C(c1sc(N3CCCCCC3)nc1O)C(=O)N=2 | inconclusive: 39.8 µM [inhibitor, partial curve] | –
31 | CC[C@H](C)/C=C(C)/C=C/C(=O)Cc1cc(O)c(C)c(O)c1C=O | inconclusive: 35.5 µM [inhibitor, full curve] | –
32 | CCOc1ccc(C2c3[nH]c4ccccc4c3CCN2C(=O)Cc2cccc(OCC)c2OCC)cc1 (centres undefined) | inconclusive: 22.4 µM [inhibitor, partial curve] | –
33 | Cc1ccc(NCc2nnc(SCC(=O)c3ccccc3)n2Cc2ccco2)c(C)c1 | inconclusive: 44.7 µM [inhibitor, partial curve] | –
34 | Cc1cccc(NC(=O)/C=C/c2cccs2)n1 | active: 50.1 µM | –
35 | CCN(C(=O)Cn1cc(S(=O)(=O)Cc2ccccc2Cl)c2ccccc21)c1ccccc1 | inconclusive: 89.1 µM [inhibitor, single point] | –
36 | Cc1ccc(N2CCN(C(=O)c3c4c(nc5ccccc35)C(=O)N(C3CCCCC3)C4)CC2)c(C)c1 | inconclusive: 89.1 µM [inhibitor, single point] | –
37 | COc1cccc2[nH]c3c(N4CCCCC4)ncnc3c12 | inconclusive: 3.55 µM [inhibitor, single point] | –
38 | CN1CCN(c2ccccc2/C=N/NC(=O)c2cccnc2)CC1 | inconclusive: 3.16 µM [inhibitor, single point] | –
39 | O=C(NCc1ccccc1)c1nccnc1CO | – | inactive: 35%
40 | Cc1ccc(S(=O)(=O)N/N=C/c2cc(Br)c(C)o2)cc1 | inconclusive: 0.251 µM [inhibitor, full curve] | –
41 | Cc1ccc(-c2cc(C(=O)NCc3cnn(C)c3)c3cc(Br)ccc3n2)cc1 | inactive | –
42 | Cc1nc2ccc(Cl)cc2c(-c2ccccc2)c1CC(=O)O | – | inactive: 9.09%
43 | Nc1cc(=O)nc(SCC(=O)Nc2ccccc2)n1-c1ccccc1 | – | inactive: 18.2%
44 | Cc1cc(C)c2[nH]c(C(=O)Nc3ccc(F)cc3Br)cc2c1 | inconclusive: 31.6 µM [inhibitor, partial curve, poor fit] | –

In the list so far, these have an NH in an aromatic ring:
Row | Structure (SMILES) | Potency | activity change, negative = inhibition
4 | Cc1cc(CN(C)C(=O)C2CCC(=O)N(CCc3ccccc3)C2)n[nH]1 (centres undefined) | – | inconclusive: -43.4% [inhibitor]
20 | CC(=O)N(C(C)=O)c1ccc2nc(C)[nH]c(=O)c2c1 | inconclusive: 7.94 µM [inhibitor, full curve, poor fit] | –
21 | Cc1n[nH]c(C)c1Sc1ccccc1N=Cc1cc(Cl)cc([N+](=O)[O-])c1O | inconclusive: 0.112 µM [inhibitor, full curve, poor fit] | –
24 | S=c1[nH]nc(COc2ccccc2)n1/N=C/c1cccs1 | inconclusive: 31.6 µM [inhibitor, full curve] | –
26 | CCc1c(C)nc(N2CCN(c3ccccc3)CC2)[nH]c1=O | inconclusive: 5.01 µM [inhibitor, single point] | –
32 | CCOc1ccc(C2c3[nH]c4ccccc4c3CCN2C(=O)Cc2cccc(OCC)c2OCC)cc1 (centres undefined) | inconclusive: 22.4 µM [inhibitor, partial curve] | –
37 | COc1cccc2[nH]c3c(N4CCCCC4)ncnc3c12 | inconclusive: 3.55 µM [inhibitor, single point] | –
44 | Cc1cc(C)c2[nH]c(C(=O)Nc3ccc(F)cc3Br)cc2c1 | inconclusive: 31.6 µM [inhibitor, partial curve, poor fit] | –
